Results are given in words; binding and its absence hold for the method and conditions named. Binding seen in cells or lysates may run through a third protein. These calls come from enrichment with a bait or labelling near it, and not all partners need be listed. One block for each binder: values may come before it.
Target: Akt (protein kinase B) (rat (endogenous in rat cardiomyocytes))
Experiment: affinity purification with mass spectrometry; Akt precipitated with polyclonal Akt 1/2/3 antibody (sc-8312) and protein A-Sepharose from 1% NP-40 lysates of cardiomyocytes of control and MetS rats stimulated with 100 nM insulin for 10 min; label-free mass spectrometry of the immune complexes

binding: binds
B1: Fructose-bisphosphate aldolase A (protein, UniProt P05065 1-364)
chain: MPHPYPALTPEQKKELADIAHRIVAPGKGILAADESTGSIAKRLQSIGTENTEENRRFYRQLLLTADDRVNPCIGGVILFHETLYQKADDGRPFPQVIKSKGGVVGIKVDKGVVPLAGTNGETTTQGLDGLSERCAQYKKDGADFAKWRCVLKIGEHTPSSLAIMENANVLARYASICQQNGIVPIVEPEILPDGDHDLKRCQYVTEKVLAAVYKALSDHHVYLEGTLLKPNMVTPGHACTQKFSNEEIAMATVTALRRTVPPAVPGVTFLSGGQSEEEASINLNAINKCPLLKPWALTFSYGRALQASALKAWGGKKENLKAAQEEYIKRALANSLACQGKYTPSGQSGAAASESLFISNHAY

binding: binds
B2: Acyl-coenzyme A thioesterase 2, mitochondrial (protein, UniProt O55171 43-453)
chain: NATLSLEPGSRSCWDEPLSITVRGLAPEQPVTLRAALRDEKGALFRAHARYRADAGGELDLARAPALGGSFTGLEPMGLIWAMEPERPLWRLVKRDVQKPYVVELEVLDGHEPDGGQRLAQAVHERHFMAPGVRRVPVRDGRVRATLFLPPEPGPFPEIIDLFGVGGGLLEYRASLLAGKGFAVMALAYYNYDDLPKTMETMRIEYFEEAVNYLRGHPEVKGPGIGLLGISKGGELGLAMASFLKGITAAVVINGSVAAVGNTVCYKDETIPPVSLLRDKVKMTKDGLLDVVEALQSPLVDKKSFIPVERSDTTFLFLVGQDDHNWKSEFYAREASKRLQAHGKEKPQIICYPEAGHYIEPPYFPLCSAGMHLLVGANITFGGEPKPHSVAQLDAWQQLQTFFHKQLSGKS

binding: binds
B3: Slit homolog 2 protein (Fragment) (protein, UniProt Q9WVC1 31-766)
chain: QCSCSGSTVDCHGLALRIVPRNIPRNTERLDLNGNNITRITKTDFAGLRHLRILQLMENKISTIERGAFHDLKELERLRLNRNNLQLFPELLFLGTAKLYRLDLSENQIQAIPRKAFRGAVDIKNLQLDYNQISCIEDGAFRALRDLEVLTLNNNNITRLSVASFNHMPKLRTFRLHSNNLYCDCHLAWLSDWLRQRPRVGLYTQCMGPSHLRGHNVAEVQKREFVCSDEEEGHQSFMAPSCSVLHCPIACTCSNNIVDCRGKGLTEIPTNLPETITEIRLEQNSIRVIPPGAFSPYKKLRRLDLSNNQISELAPDAFQGLRSLNSLVLYGNKITELPKSLFEGLFSLQLLLLNANKINCLRVDAFQDLHNLNLLSLYDNKLQTVAKGTFSALRAIQTMHLAQNPFICDCHLKWLADYLHTNPIETSGARCTSPRRLANKRIGQIKSKKFRCSGTEDYRSKLSGDCFADLACPEKCRCEGTTVDCSNQKLNKIPDHIPQYTAELRLNNNEFTVLEATGIFKKLPQLRKINLSNNKITDIEEGAFEGASGVNEILLTSNRLENVQHKMFKGLESLKTLMLRSNRISCVGNDSFTGLGSVRLLSLYDNQITTVAPGAFGTLHSLSTLNLLANPFNCNCHLAWLGEWLRRKRIVTGNPRCQKPYFLKEIPIQDVAIQDFTCDDGNDDNSCSPLSRCPSECTCLDTVVRCSNKGLKVLPKGIPRDVTELYLDGNQFTLVP

binding: binds
B4: Isoleucyl-tRNA synthetase (protein, UniProt F1LS86 1-1262)
chain: MVQQVPENISFPAEEEKILQFWSKYNCFQECLKQSKLRPKFTFYDGPPFATGLPHYGHILAGTIKDIVTRYAHQSGFHVDRRFGWDCHGLPVEYEIDKTLGIKGPEDVAKMGIAEYNKQCRAIVMRYSAEWKSTVTRLGRWIDFDNDYKTLYPQFMESVWWVFKQLYDKGLVYRGVKVMPFSTACGTPLSNFESNQNYKDVQDPSVFVTFPLEEDENTSLVAWTTTPWTLPSNLALCVNPEIQYVKIKDVSRGKLFILMEARLSALYKQESDYEILERFPGASLKGKKYKPLFDYFIKCKENGAFTVLVDHYVKDEEGTGVVHQAPYFGADDHRVCMDFNIIQKDSAPVCPVDASGCFTEEVTHFVGQYVKDADKNIIRMLKEQGRLLVASTFTHSYPFCWRSDTPLIYKSVPSWFVRVEHMVDQLLKNNDLCYWVPEFVREKRFGNWLKEARDWAISRNRYWGTPIPLWVSEDFEEVVCIGSVAELEELSGTKISDLHRESIDHLTIPSRCGKGPLRRVSEVFDCWFESGSMPYAQVHYPFESKREFEDAFPADFIAEGIDQTRGWFYTLLVLATALFGQPPFKNVIVNGLILASDGQKMSKRKKNYPDPVSIINKYGADALRLYLINSPVVRAENLRFKEEGVRDVLKDVLLPWYNAYRFFIQNVFRLHKEEEVEFLYNEHTVRESPNITDRWILSFMQSLIAFFETEMAAYRLYTVVPRLVKFVDILTNWYVRMNRRRLKGENGMEDCVMALETLFSVLLSLCRLMAPYTPFLTELMYQNLKLLIDPASIRDKDTLSIHYLMLPHVREELIDKKTENAVSRMQSVIELGRVIRDRKTIPIKYPLKEIVVIHQDPEALEDIKSLEKYIIEELNVRKVTLSTDKNKYGIRLRAEPDHMVLGKRLKGAFKAVMVAVKQLSNEELEQFQKSGSIVVEGHELHEEDIRLMYTFDQATGGTAQFEAHSDAQALVLLDVTPDQSMVDEGMAREVINRIQKLRKKCNLVPTDEITVYYNAKSEGRYLSNVIESHTDFIYATIKAPLKPYPVPTSDNILIQEQTQLKGYELEITITRGSCVPGPACAYVNLNICANGTEQGGVLLLENPKGDNQLNLEKLKSVITSIFGVKSTGLSVFNGGTELQNQTDLLSLSGRTLCVTAGASLAPASSPSTLLCQYINLQLVNAEPQECLTGTVGTLLLENPLGQNGLTHQGLVYEAAKVFGLRSRRLKLFLNETQTQEITEDIPMKTLNMKTVYVSVLPTTADG

binding: binds
B5: Protein Niban (protein, UniProt Q9ESN0 1-937)
chain: MGGSASSQLDEGKCAYIRGKTEASIKNFSPYYSRQYSVAFCNHVRSEVEQQRDLTSQFLKTKPPLEPGTVLYEAELSQFAEDIRKWKDRYVVVKNDFAVESYENKEAYQRGAVPKSRILPAGGKVLTSEEEYSLLSDKHFPDPTASSEKNSQPFLVLPKAFPVYLWQPYLRHGYFCFHEAAEQQKFSALLNDCIRHLNHDYMKQTTFEAQAFLEAVQFFRQEKGHYGAWEVITGDEVQILSKLVMEELLPTLQTDLLPKLKGKKNDRKRAWFGLLEEAYNLVQHQVSEGLSALKEECRALTKDLEGTIRSDMDQIVNSKNFLTGKIRAMVAQPAENRCGESVQPFLASILEELMGPVSSGFSEVRALFEKEVDELSQSFHTTQDGAQLKECLDQLMKLPLDSVKMEPCYTKVTLLPERLLDLQSRFRFPHVDLVVQRTQNYMQELMENAVFTFEQLLSPYLQGEASRTAVAIEKVKLRVLKQYDYDSSTIRKKIFQEALIQITLPTVQKALASTCKPELQKYEQFIFADHTNMIHVENIYEEILYQILLDETLKVITEAAILKKHNLFEDNMALPSESVSSLTDLKTSMGSNQASPARGASAILPGAPGDEAPGSEVFQGPEEKQQQPGVPGSLAREESASISGSSPPSGEDGQVSVSGVDNSAGNPLSADNSAGPLSSHLSEAEAGEPPKDEETAHKRPESSAVPGSLRELKELLTVTVFVESAPEIGNDTLNGTPVPQEDKKEEEEEEESKIHPEASGPAAIQQDSCEESEVREREAHPMPLEAEAPGVNLGTLPEGRGPTSQSTGEGLTENTSCLGPIEEPSEAQGPTEEVLLATVSTQDSTEAGGEAVHSVTVTPQEDATLSSNPICPVENNEGPQVSEDQEVLGGNDSPALAMDTEQINDAHVYECHWEVEDAPSADILDVHDCDVGSPGEW

binding: binds
B6: Regulator of microtubule dynamics protein 1 (protein, UniProt Q4G069 1-310)
chain: MALSSRLWRLLPLLRGAEQSVCQLARSWGSGGRCGTWGFRGSEVTGNTRAFKRGLLFSALSYLGFETYQVISQAAVVHATAKVEEILEQADYLYESGETEKLYQLLTQYKESEDVELLWRLARASRDIAQLCKTSEEEKKVLLYEALEYAKRALEKKGSSFAAHKWYAICISDVGDYEGIKVKIANAYVIKEHFEKAIELNPKDATSIHLMGIWCYTFAEMPWYQRRIAEVLFANPPSSTYEEALKYFHRAEEVDPNFYSKNLLLLGKTYLKLNNKKLAAFWLVKAKSYPAHTEEDKQIQTEAAQLLTGL

binding: binds
B7: Poly(A) polymerase gamma (protein, UniProt D3ZAN6 1-739)
chain: MKEMSANTMLDSQRQQKHYGITSPISLACPKEIDHIYTQKLIDAMKPFGVFEDEEELNHRLVVLGKLNNLVKEWISDISESKNLPPSVVATVGGKIFTFGSYRLGVHTKGADIDALCVAPRHVERSDFFQSFFEKLKHQDGVRNLRAVEDAFVPVIKFEFDGIEIDLVFARLAIQTISDNLDLRDDSRLRSLDIRCIRSLNGCRVTDEILHLVPNKETFRLTLRAVKLWAKRRGIYSNMLGFLGGVSWAMLVARTCQLYPNAAASTLVHKFFLVFSKWEWPNPVLLKQPEESNLNLPVWDPRVNPSDRYHLMPIITPAYPQQNSTYNVSTSTRTVMVEEFKQGLAVTDEILQGKSDWSKLLEPPNFFQKYRHYIVLTASASTEENHLEWVGLVESKIRVLVGNLERNEFITLAHVNPQSFPGNKEHHKANNYVSMWFLGIIFRRVENAESVNIDLTYDIQSFTDTVYRQANNINMLKDGMKIEATHVKKKQLHHYLPAEILQKKKKSLSDVSRSSGGLQSKRSSLDSNCLDSSRDTDSGTPFNSPGSAHKPSNPDSPTGDAERSNAEPMAVIVEKLPSVPPAQGLSIPVIGAKGDAAVKAVSSPAVCTIPTVVGRSVIPRVTTPHNPVQGQPHLNGISNITKNVTPKRSHSPPTDGTAKRLKDIEKFIRLESAFKESRAAEDRKRKPMDAIGGESMPIPTIDTSRKKRLPSKELPDSSSPVPASNIRVIKNSIRLTLNR

binding: binds
B8: Calsequestrin-2 (protein, UniProt P51868 20-413)
chain: EEGLNFPTYDGKDRVVSLSEKNLKQVLKRYDLLCLYYHEPVSSDKVAQKQFQLKEIVLELVAQVLEHKNIGFVMVDSRKEAKLAKRLGFSEEGSLYVLKGGRTIEFDGEFAADVLVEFLLDLIEDPVEIVNNKLEVQAFERIEDQIKLLGFFKNEDSEYYKAFQEAAEHFQPYIKFFATFDKGVAKKLSLKMNEVGFYEPFMDEPSVIPNKPYTEEELVEFVKEHQRPTLRPLRPEDMFETWEDDLNGIHIVAFAEKSDPDGYEFLEILKQVARDNTDNPDLSILWIDPDDFPLLVAYWEKTFKIDLFKPQIGVVNVTDADSVWMEIPDDDDLPTAEELEDWIEDVLSGKINTEDDDNEDEDDDGDNDNDDDDDDDDNSDEDNDDSDDDDDDDE

binding: binds
B9: Electron transfer flavoprotein subunit beta (protein, UniProt Q68FU3 1-255)
chain: MAELRALVAVKRVIDFAVKIRVKPDKSGVVTDGVKHSMNPFCEIAVEEAVRLKEKKLVKEIIAVSCGPPQCQETIRTALAMGADRGIHVEVPGAEAENLGPLQVARVLAKLAEKEKVDLLFLGKQAIDDDCNQTGQMTAGLLDWPQGTFASQVTLEGDKVKVEREIDGGLETIRLKLPAVVTADLRLNEPRYATLPNIMKAKKKKIEVIKAGDLGVDLTSKVSVISVEEPPQRLAGVKVETTEDLVAKLKEVGRI

binding: binds
B10: Uncharacterized protein (M0RD07) (protein, UniProt M0RD07 1-93)
chain: MRMMAMQMMTNSISDAMERYKELIQVNSSYNIRQSQLLREQAQLKNNIQILLNEKRELLVEETELPASSVEAKRLCEEAGMNICDPRAKQQQV
